Data from paper PMC5513536.
These are yes or no findings as the source states them, for the method shown. In cells and extracts the contact can be indirect. Some results given as binding are weak or reduced against the parent protein; the word gives no strength. Tags and fused reporters may be left off the sequences shown.

Chains of the proteins cited; added tags and fusions are not shown. Lines headed by an entry give the natural chain unless they say otherwise; changes in a name come on top. A line that says so, or that is headed by a name, gives the form on record, which may keep a tag or linker. Residues count along the entry.
UniProt O14744: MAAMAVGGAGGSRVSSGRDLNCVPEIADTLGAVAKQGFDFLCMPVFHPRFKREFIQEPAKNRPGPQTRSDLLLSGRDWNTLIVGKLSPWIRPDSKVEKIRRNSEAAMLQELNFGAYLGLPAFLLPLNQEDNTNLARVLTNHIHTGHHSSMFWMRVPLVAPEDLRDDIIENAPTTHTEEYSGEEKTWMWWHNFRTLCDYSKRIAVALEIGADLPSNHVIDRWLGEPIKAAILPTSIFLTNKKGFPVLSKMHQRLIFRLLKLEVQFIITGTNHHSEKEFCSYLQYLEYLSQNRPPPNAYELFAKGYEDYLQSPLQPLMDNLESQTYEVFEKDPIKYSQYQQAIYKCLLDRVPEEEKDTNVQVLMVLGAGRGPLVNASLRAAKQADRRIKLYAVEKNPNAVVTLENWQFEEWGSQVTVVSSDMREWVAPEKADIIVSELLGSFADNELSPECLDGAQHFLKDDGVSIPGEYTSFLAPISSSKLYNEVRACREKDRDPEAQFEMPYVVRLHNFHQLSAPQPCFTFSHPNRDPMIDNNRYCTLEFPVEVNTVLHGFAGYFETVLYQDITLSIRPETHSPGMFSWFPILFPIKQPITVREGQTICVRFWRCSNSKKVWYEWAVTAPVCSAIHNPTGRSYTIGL
Flag-tagged PRMT5 210-420aa: residues 210-420 of O14744

B1: ORF59-HA (protein, UniProt F5HID2 1-396)
chain: MPVDFHYGVRVDVTLLSKIRRVNEHIKSATKTGVVQVHGSACTPTLSVLSSVGTAGVLGLRIKNALTPLVGHTEGSGDVSFSFRNTSVGSGFTHTRELFGANVLDAGIAFYRKGEACDTGAQPQFVRTTISYGDNLTSTVHKSVVDQKGILPFHDRMEAGGRTTRLLLCGKTGAFLLKWLRQQKTKEDQTVTVSVSETLSIVTFSLGGVSKIIDFKPETKPVSGWDGLKGKKSVDVGVVHTDALSRVSLESLIAALRLCKVPGWFTPGLIWHSNEILEVEGVPTGCQSGDVKLSVLLLEVNRSVSAEGGESSQKVPDSIPDSRRQPELESPDSPPLTPVGPFGPLEDASEDAASVTSCPPAAPTKDSTKRPHKRRSDSSQSRDRGKVPKTTFNPLI

Assays:
[1] = molecular target: T1, ORF59-Flag (KSHV (human herpesvirus 8)) (UniProt F5HID2); assay: co-IP
T1 sequence: B1 chain

[2] = molecular target: Flag-tagged PRMT5 210-420aa (human) (UniProt O14744); assay: co-IP

| Molecule | binding [1] | binding [2] |
| --- | --- | --- |
| PRMT5-Myc (from UniProt O14744 1-637) | binds | – |
| B1 | – | binds |
